# PubChem BioAssay AID1224830, NIAID, 2016
# Screen: 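Host factors that control LPS-induced TNF expression in human macrophages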 (primary screen)
# Cell system: human THP-1 monocytic leukaemia cells, TNF dual-luciferase reporter clone, PMA-differentiated to macrophage-like cells
# Reagents: siRNA pool against human genes, 50 nM
# Duration: LPS for 4 h, given about 3 days after siRNA transfection
# Challenge: bacterial LPS (TLR4 ligand), 10 ng/ml
# Detection: 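TNF firefly reporter luminescence divided by renilla, normalised to the plate median, then turned into a robust z-score for each replicate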
# Reading the numbers: TNF reporter robust z-score: higher = stronger TNF reporter response to LPS
# Rule for the call: 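a well is active when its z-score exceeds 2.8 or falls below -1.5; control wells carry no call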
# The whole screen tested about 18,000 reagents; this is a random part of them. In the full data, about 2,900 (16%) got an active call. 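Calls are made per well; low scores hint the gene aids the LPS response, high scores that it dampens it.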 A number with no mark means an inactive call. Repeated entries: four replicate wells of each siRNA pool.
gene symbol,TNF reporter robust z-score
SELENOW,-0.92
SELENOW,-0.4
SELENOW,-0.58
SELENOW,0.28
APOBEC3G,0.68
APOBEC3G,-0.82
APOBEC3G,0.35
APOBEC3G,0.27
ID1,0.5
ID1,0.58
ID1,0.82
ID1,1.32
NRSN1,0.45
NRSN1,-0.46
NRSN1,0.98
NRSN1,-0.09
PSMB3,-1.89 (active)
PSMB3,-1.95 (active)
PSMB3,-1.64 (active)
PSMB3,-1.37
RAD21,-0.77
RAD21,-1.19
RAD21,-1.05
RAD21,-1.08
CLCN3,-1.59 (active)
CLCN3,0.46
CLCN3,-0.4
CLCN3,-0.01
TMEM150A,1.1
TMEM150A,1.45
TMEM150A,0.66
TMEM150A,-0.45
MRPL18,0.27
MRPL18,2.39
MRPL18,1.05
MRPL18,3 (active)
DCAF4L2,0.08
DCAF4L2,-0.51
DCAF4L2,-1.51 (active)
DCAF4L2,-1.31
BCKDHA,-0.13
BCKDHA,0.1
BCKDHA,-0.03
BCKDHA,0.28
TBX5,-0.84
TBX5,0.36
TBX5,-0.07
TBX5,0.4
NDUFS5,1.75
NDUFS5,1.45
NDUFS5,0.91
NDUFS5,1.65
BCL2,3 (active)
BCL2,3.01 (active)
BCL2,2.8 (active)
BCL2,3.76 (active)

Continued; the last 13 above are carried over.
gene symbol,TNF reporter robust z-score
BCKDHA,0.28
TBX5,-0.84
TBX5,0.36
TBX5,-0.07
TBX5,0.4
NDUFS5,1.75
NDUFS5,1.45
NDUFS5,0.91
NDUFS5,1.65
BCL2,3 (active)
BCL2,3.01 (active)
BCL2,2.8 (active)
BCL2,3.76 (active)
NXPH1,-1.12
NXPH1,1.29
NXPH1,0.32
NXPH1,0.9
MMD,-1.58 (active)
MMD,1.12
MMD,0.48
MMD,0
NEK10,0.04
NEK10,-0.99
NEK10,0.02
C1orf54,0.63
C1orf54,-0.49
C1orf54,-0.85
C1orf54,-0.53
ZNF774,2.81 (active)
ZNF774,0.56
ZNF774,0.27
ZNF774,1.66
LMO3,2
LMO3,3.15 (active)
LMO3,0.82
LMO3,2.25
MRPS25,-1.07
MRPS25,-1.31
MRPS25,-0.84
MRPS25,0.56
ARIH2,0.59
ARIH2,-0.89
ARIH2,-0.78
ARIH2,0.23
TRIM3,-0.23
TRIM3,1.38
TRIM3,-0.07
TRIM3,-0.57
LAMP5,-0.67
LAMP5,-0.37
LAMP5,-0.3
LAMP5,-0.41
VWC2,-0.43
VWC2,1.03
VWC2,2.16
VWC2,1.02
OR56A4,-0.37
OR56A4,-0.81
OR56A4,-0.3
OR56A4,-0.55
GPR68,-0.57
GPR68,-0.71
GPR68,-0.63
GPR68,-0.55
ANKRD13B,0.56
ANKRD13B,0.08
ANKRD13B,0.74
ANKRD13B,1.08
